Source: patent US4123425 (dated 1978)
HELM strings list residues between dots; [ac] is acetyl, [am] amide, other brackets name non-standard units.

Experiment: general procedure: Boc solid-phase peptide synthesis; DCC (DCC/1-hydroxybenzotriazole for the dipeptide coupling)
Conditions: whole synthesis, triacetate

PEPTIDE1{A.G.C.K.[2-MeAla].F.F.W.K.T.F.T.S.C}$PEPTIDE1,PEPTIDE1,3:R3-14:R3$$$V2.0
difficulty met: Due to incomplete coupling the coupling of t-Boc-2-methylalanine was repeated twice
